Our source for the binding values is US20180326084A1.

Sequences of proteins named here, by UniProt entry; tags and fusion partners are left off. A change or cut given only in a name is not applied to a line headed by its entry. Residues count along the entry.
UniProt P30530: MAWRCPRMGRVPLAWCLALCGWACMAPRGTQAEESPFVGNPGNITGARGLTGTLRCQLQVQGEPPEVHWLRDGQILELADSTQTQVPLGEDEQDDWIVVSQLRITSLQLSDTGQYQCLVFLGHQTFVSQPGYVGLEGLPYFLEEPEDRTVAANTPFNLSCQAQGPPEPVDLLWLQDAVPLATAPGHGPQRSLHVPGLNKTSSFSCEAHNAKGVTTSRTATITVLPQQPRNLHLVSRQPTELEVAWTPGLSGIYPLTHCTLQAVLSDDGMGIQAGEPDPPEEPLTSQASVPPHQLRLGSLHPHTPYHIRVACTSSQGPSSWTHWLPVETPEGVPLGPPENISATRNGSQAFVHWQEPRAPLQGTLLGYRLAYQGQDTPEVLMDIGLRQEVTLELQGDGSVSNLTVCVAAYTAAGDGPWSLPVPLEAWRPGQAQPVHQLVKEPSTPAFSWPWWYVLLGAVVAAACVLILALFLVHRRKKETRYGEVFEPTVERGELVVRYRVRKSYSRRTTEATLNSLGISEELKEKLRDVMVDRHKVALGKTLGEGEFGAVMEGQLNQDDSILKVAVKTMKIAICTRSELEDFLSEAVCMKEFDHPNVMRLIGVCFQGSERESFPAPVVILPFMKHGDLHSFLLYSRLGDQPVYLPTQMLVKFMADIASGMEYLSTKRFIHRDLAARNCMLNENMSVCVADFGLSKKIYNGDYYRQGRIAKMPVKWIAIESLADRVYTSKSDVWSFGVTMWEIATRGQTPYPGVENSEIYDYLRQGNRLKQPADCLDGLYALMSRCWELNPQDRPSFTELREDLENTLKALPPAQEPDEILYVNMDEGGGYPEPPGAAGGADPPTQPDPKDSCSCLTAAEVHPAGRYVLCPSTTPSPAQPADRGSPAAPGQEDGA
UniProt Q06418, residues 41-890: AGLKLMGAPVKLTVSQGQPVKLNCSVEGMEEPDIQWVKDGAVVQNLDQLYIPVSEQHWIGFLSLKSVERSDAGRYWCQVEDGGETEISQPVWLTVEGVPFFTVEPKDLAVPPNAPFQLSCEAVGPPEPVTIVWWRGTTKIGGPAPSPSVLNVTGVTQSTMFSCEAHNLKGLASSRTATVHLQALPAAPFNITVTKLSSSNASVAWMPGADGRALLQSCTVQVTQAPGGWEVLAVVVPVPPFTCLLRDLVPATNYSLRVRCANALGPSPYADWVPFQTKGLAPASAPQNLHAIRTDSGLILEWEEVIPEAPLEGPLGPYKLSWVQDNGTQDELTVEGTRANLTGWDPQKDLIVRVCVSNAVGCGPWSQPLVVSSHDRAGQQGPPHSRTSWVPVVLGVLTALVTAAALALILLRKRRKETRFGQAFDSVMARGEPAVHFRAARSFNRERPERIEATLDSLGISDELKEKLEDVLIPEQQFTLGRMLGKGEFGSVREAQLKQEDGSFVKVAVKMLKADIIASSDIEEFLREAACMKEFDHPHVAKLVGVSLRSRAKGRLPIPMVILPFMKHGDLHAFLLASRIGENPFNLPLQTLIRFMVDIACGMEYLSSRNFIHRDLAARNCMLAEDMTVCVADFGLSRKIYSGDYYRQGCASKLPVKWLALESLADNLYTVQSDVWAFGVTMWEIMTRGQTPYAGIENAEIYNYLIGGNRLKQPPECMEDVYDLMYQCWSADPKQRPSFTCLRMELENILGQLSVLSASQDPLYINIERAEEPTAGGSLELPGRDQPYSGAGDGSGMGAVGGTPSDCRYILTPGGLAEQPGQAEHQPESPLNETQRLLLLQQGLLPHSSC
UniProt Q12866, residues 21-999: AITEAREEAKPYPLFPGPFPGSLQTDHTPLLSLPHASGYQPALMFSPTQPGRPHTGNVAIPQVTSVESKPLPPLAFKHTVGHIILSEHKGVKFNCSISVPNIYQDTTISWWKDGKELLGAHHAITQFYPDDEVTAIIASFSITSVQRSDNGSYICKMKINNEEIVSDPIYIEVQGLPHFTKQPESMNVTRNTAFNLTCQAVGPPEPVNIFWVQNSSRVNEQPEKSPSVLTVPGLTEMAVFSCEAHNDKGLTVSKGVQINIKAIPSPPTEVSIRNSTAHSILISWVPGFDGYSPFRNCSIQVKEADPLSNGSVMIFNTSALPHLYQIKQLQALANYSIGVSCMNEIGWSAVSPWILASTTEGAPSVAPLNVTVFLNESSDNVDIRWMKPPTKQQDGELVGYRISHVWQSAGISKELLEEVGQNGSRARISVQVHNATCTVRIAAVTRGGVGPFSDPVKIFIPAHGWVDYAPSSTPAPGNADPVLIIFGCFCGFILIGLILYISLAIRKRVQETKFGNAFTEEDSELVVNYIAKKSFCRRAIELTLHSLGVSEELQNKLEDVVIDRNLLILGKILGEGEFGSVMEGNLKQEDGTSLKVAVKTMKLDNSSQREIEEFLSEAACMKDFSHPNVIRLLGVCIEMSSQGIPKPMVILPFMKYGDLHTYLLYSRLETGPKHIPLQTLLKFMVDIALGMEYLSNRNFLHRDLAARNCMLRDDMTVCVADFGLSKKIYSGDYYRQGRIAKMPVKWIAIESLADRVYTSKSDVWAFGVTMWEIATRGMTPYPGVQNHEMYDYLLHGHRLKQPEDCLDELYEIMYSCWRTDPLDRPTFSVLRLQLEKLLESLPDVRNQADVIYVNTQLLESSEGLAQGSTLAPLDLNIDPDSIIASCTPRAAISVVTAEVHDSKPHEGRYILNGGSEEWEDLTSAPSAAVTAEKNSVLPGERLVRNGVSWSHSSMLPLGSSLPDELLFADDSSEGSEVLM

Changes are numbered by the printed parent chain. Numbers in names are those of the source. These are yes or no findings as the source states them, for the method shown. Some binding calls cover weakened binding; strength is not graded here.

In assay [1] the target is human AXL (full length) (human) (UniProt P30530). The assay can be described thus: flow cytometry, HEK293T cells transiently transfected with human AXL. (Flow cytometry measures light scatter and fluorescence of single cells or particles in a stream.)
Another assay has as its target human TYRO3 (human) (UniProt Q06418). The assay can be described thus: flow cytometry, HEK293F cells transfected with human TYRO3.
The target in another assay is human MER (human) (UniProt Q12866). The assay can be described thus: flow cytometry, HEK293F cells transfected with human MER.
Assay [2] deals with Homo sapiens AXL-Mus musculus FN2 domain (p33-AXL-mFN2) (human-mouse chimera) (UniProt P30530). The assay can be described thus: flow cytometry, HEK293F cells expressing the chimera.
For assay [3] the target is unchanged. The assay can be described thus: flow cytometry, 1 µg/mL antibody, transfected HEK293F cells.

B1: IgG1-AXL-726-A-vcDuo3 (antibody, V domains shown)
VH: QVQLQQWGAGLLKPSETLSLTCAIDGGSFSGYYWSWIRQPPGKGLEWIGEISHSGRTNYNPSLKSRVTISIDTSKNQFSLKLSSVAAADTAVYYCARFITMIRGAIITHFDYWGQGALVTVSS
VL: DIQMTQSPSSLSASVGDRVTITCRASQGISSWLAWYQQKPEKAPKSLIYAASSLQSGVPSRFSGSGSGTDFTLTISSLQPEDFATYYCQQYHSYPYTFGQGTKLEIK
modifications: drug-linker on lysine(s); chain and position not given
As to B1, the binding entry in assay [1] is on record as “binds”.

B2: IgG1-AXL-511 (antibody, V domains shown)
VH: EVQLLESGGGLVQPGGSLRLSCAASGFTFSSYAMNWVRQAPGKGLEWVSGISGSGGHTYHADSVKGRFTISRDNSKNTLYLQMNSLRAEDTAVYYCAKDRYDILTGYYNLLDYWGQGTLVTVSS
VL: B1 VL with K42E, H92N, Y96L, Q100G, T102A, L104V
On to B2, for which the binding result with human TYRO3 (human) and with human MER (human) was “no binding (tested: 10 µg/mL)” in each case.

B3: IgG1-AXL-726 (antibody, V domains shown)
VH: B1 VH
VL: B1 VL
As for B3, the binding result in assay [2] and in assay [3] was “no binding (tested: 1 µg/mL)” in each case.

B4: IgG1-AXL-726-M101L (antibody, V domains shown)
VH: B1 VH with M101L
VL: B1 VL
Turning to B4, the binding entry with human TYRO3 (human) and with human MER (human) was “no binding (tested: 10 µg/mL)” in each case.

B5: IgG1-AXL-148 (antibody, V domains shown)
VH: EVQLLESGGGLVQPGGSLRLSCAASGFTFSSYAMTWVRQAPGKGLEWVSAISISGGSTFYADSVKGRFTISRDNSKNTLYLQMNSLRAEDTAVYYCRGYSGYVYDAFDFWGQGTMVTVSS
VL: B1 VL with S31N, H92N, Y96L, Q100G, L104V
Regarding B5, the binding entry in the assay with human TYRO3 (human) and with human MER (human) was “no binding (tested: 10 µg/mL)” each time.

B6: IgG1-AXL-733 (antibody, V domains shown)
VH: QVQLVESGGGVVQPGRSLRLSCAASGFSFSTYAMHWVRQAPGKGLEWVAVISYDGDNKYSADSVKGRFTISRDNSKNTLYLQMNSLRAEDTAVYYCARGRKLGIDAFDIWGQGTMVTVSS
VL: AIQLTQSPSSLSASVGDRVTITCRASQGISSALAWYQQKPGKAPKLLIYDASSLESGVPSRFSGSGSGTDFTLTISGLQPEDFATYYCQQFNSYPFTFGPGTKVDIK
B6: the binding entry with human TYRO3 (human) and with human MER (human) was “no binding (tested: 10 µg/mL)” throughout.

B7: IgG1-AXL-183-A-vcDuo3 (antibody, V domains shown)
VH: QVQLQQWGAGLLKPSETLSLTCAVYGGSFSGYYWSWIRQPPGKGLEWIGEINQSGSTNYNPSLKSRVTISVDTSKNQFSLKLSSVTAADTSVYYCASGNWDHFFDYWGQGTLVTVSS
VL: DIQMTQSPSSVSASVGDRVTITCRASQGISSWLAWYQHKPGKAPKLLIYATSSLQSGVTSRFSGSGSGTDFTLTISSLQPEDFATYYCQQAKSFPWTFGQGTKVEIK
modifications: drug-linker on lysine(s); chain and position not given
With B7, the binding result in assay [1] was “binds”.

B8: IgG1-AXL-183-N52Q (antibody, V domains shown)
VH: B7 VH with N52Q
VL: B7 VL
For the molecule B8, the binding result with human TYRO3 (human) and in the assay with human MER (human) was “no binding (tested: 10 µg/mL)” throughout.
